In patent US5977144A (priority 1997, dated 1999):
At least one compound was matched to its structure with a doubt left.

The chains behind the UniProt entries cited, without tags or fusion partners. Residues count along the entry.
UniProt Q05941, 23-502: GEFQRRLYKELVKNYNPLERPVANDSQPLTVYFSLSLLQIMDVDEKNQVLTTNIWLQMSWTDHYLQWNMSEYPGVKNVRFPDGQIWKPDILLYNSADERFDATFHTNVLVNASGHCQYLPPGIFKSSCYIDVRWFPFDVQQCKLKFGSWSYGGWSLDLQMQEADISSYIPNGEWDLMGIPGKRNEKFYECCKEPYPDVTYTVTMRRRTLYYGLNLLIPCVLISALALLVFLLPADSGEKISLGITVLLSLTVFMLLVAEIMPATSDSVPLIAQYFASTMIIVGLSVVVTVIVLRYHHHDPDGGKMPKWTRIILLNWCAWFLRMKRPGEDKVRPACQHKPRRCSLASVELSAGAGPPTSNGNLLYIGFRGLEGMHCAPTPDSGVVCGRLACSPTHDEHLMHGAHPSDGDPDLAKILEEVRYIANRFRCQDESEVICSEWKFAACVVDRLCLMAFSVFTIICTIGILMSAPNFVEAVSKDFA

Target: rat alpha7 receptor (Rattus norvegicus, UniProt Q05941)
Assay type: cell-based
Settings: ACh
Description: FIG. 13B. Effects of chronic injections of DMXB or nicotine on high affinity [^3 H]ACh or [^125 I]α-bungarotoxin (BTX) binding in rat neocortices. Adult male rats were injected with saline vehicle, 1 mg/kg DMXB or 0.2 mg/kg nicotine (NIC) (IP) daily for 2 weeks. At that time, neocortices were removed and assayed for high affinity [^3 H]ACh or [^125 I]α-bungarotoxin binding as described in the text. […] Responses of rat α7 AChR to 3-CA, 2-MeOCA and 4-MeOCA. […] All responses are expressed relative to the oocyte-response to 500 μM ACh applied 5 min prior to the experimental agonist application.
Oocytes were prepared and recordings made as described previously (de Fiebre, et al., 1995). Frogs were anesthetized by submersion in 0.1% (3)-aminobenzoic acid ethyl ester and several lobes of the ovary surgically removed through a small incision in the abdomen wall. […] Drug responses are analyzed with PClamp software (Axon Instruments). […]
Antagonist properties subsequent to agonist activity were measured as a decrease in responsiveness to ACh applied 5 min after compound-application, normalized to ACh application instead of the anabaseine-derivative (FIG. 13A AND FIG. 13B).

CC(=O)OCC[N+](C)(C)C [ACh, acetylcholine, reference compound]
long term inhibitory activity at α7 (in words): no long term inhibitory activity
